At least one compound was matched to its structure with a doubt left.
Key:
Assay type in all cases: cell-based, human
[1] = tested on: HEK 293T cells; assay: MTT proliferation and viability assay; details: shRNA 4A.10 or 4A.06, 48h
Experimental: For tissue culture and generation of stable cell lines see (Black et al., 2010). Rapamycin (LC Laboratories) and AZD8055 (Selleckchem) were used at indicated concentrations. […] JIB-04 (Xcessbio) was used at a final concentration of 250 nM. For the translation assays, DMEM depleted of Methionine and Cysteine (Life Technologies 21013-024) was used.
MTT assays were performed following supplier's instructions from the Cell Proliferation Kit I™ (MTT) from Roche. Briefly, 1×10^4 cells were seeded per well of a 96 well plate and grown for 24h before treatment. Forty-eight hours later, cells were assayed.

[2] = tested on: HEK 293T cells; assay: Monitored cell proliferation assay (xCELLigence growth curves, doubling time); details: three shRNAs, 100 ng/ml Rapamycin
Experimental: Seventy two hours post transfection 1×10^4 HEK 293T cells were seeded per well of a 96 well plate, and then treated after 24h. Cell proliferation was monitored with an xCELLigence system (Roche) (Vistejnova et al., 2009).

[3] = tested on: overall translation; assay: Translation assay (AHA incorporation, Click-IT); details: HEK 293T; shRNA 4A.2; three doses of Rapamycin 24h
Experimental: Translation assays were performed following supplier's instructions from Click-IT™ Metabolic Labeling Reagents for Proteins (Life Technologies). Cells were incubated in presence of DMEM without Cysteine and Methionine for 1 h, then grown in presence of 50 μM AHA (L-azidohomoalanine, Life Technologies C10102) for 2h, harvested and washed extensively with PBS. Cells were lysed in 1% SDS in 50 mM Tris pH8 with 10% Glycerol and sonicated using a bath sonicator (QSonica™ Q800R) for 30 min. The Click-IT reactions were performed following the supplier's instructions from Click-IT™ Protein Reaction Buffer Kit (Life Technologies). Briefly, 50 μg to 100 μg of lysates were used per reaction with 40 μM Alkyne-Biotin (Life Technologies B10185), and 10 μg were assayed by western blot using a Streptavidin antibody conjugated to HRP.

[4] = tested on: KDM4A; assay: KDM4A protein levels by western blot; details: for endogenous KDM4A protein levels over time: 100 ng/ml Rapamycin
Experimental: Western blot analyses were performed according to (Black et al., 2010).
Western blots were performed as in (Black et al., 2010). Briefly, adherent cells were either scraped directly into PBS, or washed with PBS, trypsinized and collected by centrifuging at 2,000 RPM for 5 minutes. For preparation of whole-cell lysates, cell pellets were washed once in ice-cold PBS and resuspended in RIPA lysis buffer [50 mM Tris pH 7.4, 150 mM NaCl, 0.25% Sodium Deoxycholate, 1% NP40, 1 mM EDTA, 10% Glycerol] supplemented with complete protease inhibitor and PhosSTOP™ phosphatase inhibitor cocktails (Roche). Cells were lysed on ice for 15 minutes and immediately frozen at −80° C. for 10 min. Lysates were subsequently sonicated at 70% amplitude for 15 minutes in a QSonica Q800R™ and cleared of cell debris by centrifuging at 12,000 RPM for 15 minutes, before being analyzed by western blotting. For HIF1α expression, adherent cells were washed twice with ice-cold PBS and scraped directly in warmed 1× Laemmli buffer. Samples were sonicated at 70% amplitude for 15 minutes and boiled immediately prior to western blotting.

[5] = tested on: KDM4A RNA; assay: KDM4A RNA levels; details: HEK 293T; 100 ng/ml Rapamycin 24h

SMILES: CO[C@H]1C[C@@H]2CC[C@@H](C)[C@@](O)(O2)C(=O)C(=O)N2CCCC[C@H]2C(=O)O[C@H]([C@H](C)C[C@@H]2CC[C@@H](O)[C@H](OC)C2)CC(=O)[C@H](C)/C=C(\C)[C@@H](O)[C@@H](OC)C(=O)[C@H](C)C[C@H](C)/C=C/C=C/C=C/1C [Rapamycin]
- drug sensitivity of KDM4A shRNA cells vs control vector (MTT) [1]: more sensitive
- drug sensitivity of KDM4A shRNA cells vs control vector (doubling time 5h-35h) [2]: more sensitive
- overall translation upon KDM4A knock-down and Rapamycin [3]: a further decrease of translation was observed
- endogenous KDM4A protein levels over time ([4]; H290 cells (homozygous KDM4A SNP-A482)): exhibited reduced endogenous KDM4A protein levels
- endogenous KDM4A protein levels during Rapamycin treatment ([4]; HEK 293T, 100 ng/ml Rapamycin 24h): reduced
- endogenous KDM4A protein levels over time ([4]; LU99B cells (homozygous KDM4A WT)): did not exhibit this phenotype
- KDM4A RNA levels during Rapamycin treatment [5]: unchanged
